Results are given in words; binding and its absence hold for the method and conditions named. Binding seen in cells or lysates may run through a third protein. Some binding calls cover weakened binding; strength is not graded here.
Tests used:
[1] = biological target: KIX-binding motif mutant DUX4 tagged with HA (human) (UniProt Q9UBX2); test: co-IP; HEK-GripTite 293 MSR cells co-transfected with HA-tagged DUX4 and V5-tagged prey; lysates precipitated for HA-tag; immunoblots for V5 and HA
[2] = biological target: wildtype DUX4 tagged with HA (human) (UniProt Q9UBX2); test: as above

The chains behind the UniProt entries cited, without tags or fusion partners. Where a name states a change or a piece, a line headed by the entry shows the natural chain unless it says otherwise. A line that says so, or that is headed by a name, gives the form on record, which may keep a tag or linker.
KIX-binding motif mutant DUX4 tagged with HA (Q9UBX2, form named): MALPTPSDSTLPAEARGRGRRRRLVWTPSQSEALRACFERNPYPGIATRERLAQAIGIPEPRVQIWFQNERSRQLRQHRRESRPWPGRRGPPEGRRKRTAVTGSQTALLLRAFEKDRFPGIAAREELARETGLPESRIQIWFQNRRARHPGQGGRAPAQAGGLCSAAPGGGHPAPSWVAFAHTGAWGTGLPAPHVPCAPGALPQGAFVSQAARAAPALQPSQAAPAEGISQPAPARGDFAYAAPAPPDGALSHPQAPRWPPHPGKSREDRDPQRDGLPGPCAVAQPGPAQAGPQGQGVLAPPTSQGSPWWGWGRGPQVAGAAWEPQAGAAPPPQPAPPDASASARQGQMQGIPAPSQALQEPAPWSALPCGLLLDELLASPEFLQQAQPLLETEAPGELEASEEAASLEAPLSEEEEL
UniProt Q96RN5: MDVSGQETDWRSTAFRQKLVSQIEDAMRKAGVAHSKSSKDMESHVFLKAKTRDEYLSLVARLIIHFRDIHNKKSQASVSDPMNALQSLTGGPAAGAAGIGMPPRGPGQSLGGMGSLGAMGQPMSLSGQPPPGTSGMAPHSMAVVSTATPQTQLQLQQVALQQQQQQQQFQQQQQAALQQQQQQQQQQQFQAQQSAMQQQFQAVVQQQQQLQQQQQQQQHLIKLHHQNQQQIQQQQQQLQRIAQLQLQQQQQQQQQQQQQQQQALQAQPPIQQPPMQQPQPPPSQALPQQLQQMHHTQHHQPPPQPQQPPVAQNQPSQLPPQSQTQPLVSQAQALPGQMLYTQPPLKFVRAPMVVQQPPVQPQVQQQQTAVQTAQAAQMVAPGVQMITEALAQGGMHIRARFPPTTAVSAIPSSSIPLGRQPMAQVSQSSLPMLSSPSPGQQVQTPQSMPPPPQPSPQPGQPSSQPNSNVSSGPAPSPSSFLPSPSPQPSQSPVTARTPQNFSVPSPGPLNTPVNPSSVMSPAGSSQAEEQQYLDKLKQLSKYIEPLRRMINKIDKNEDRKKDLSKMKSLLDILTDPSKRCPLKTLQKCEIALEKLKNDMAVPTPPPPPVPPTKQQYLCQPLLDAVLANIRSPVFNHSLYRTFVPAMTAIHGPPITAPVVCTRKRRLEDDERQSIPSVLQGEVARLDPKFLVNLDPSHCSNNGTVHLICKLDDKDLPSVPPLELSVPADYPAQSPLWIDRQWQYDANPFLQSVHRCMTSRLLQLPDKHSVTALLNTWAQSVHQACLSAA

MED15 tagged with V5 (from UniProt Q96RN5 1-788)
binding [1]: no binding | binding [2]: binds

Reference: publication PMC8990217, “DUX4 is a multifunctional factor priming human embryonic genome activation” (iScience, 2022)
